The assay concerns the target T1, GAL4 BD-Myc-NleE (enteropathogenic E. coli (EPEC 2348/69)) (UniProt B7UI22).
T1 sequence: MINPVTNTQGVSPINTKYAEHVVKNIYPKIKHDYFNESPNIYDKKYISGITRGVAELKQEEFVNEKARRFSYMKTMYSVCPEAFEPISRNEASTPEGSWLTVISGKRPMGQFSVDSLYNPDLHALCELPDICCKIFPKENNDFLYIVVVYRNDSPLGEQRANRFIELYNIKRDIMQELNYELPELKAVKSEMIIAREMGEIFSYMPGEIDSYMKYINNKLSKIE
Kind of assay: two-hybrid; yeast strain AH109 transformed with plasmid combinations (bait+prey): GAL4 BD-Myc-NleE with GAL4 AD-fused TAB3 truncations.

Results are given in words; binding and its absence hold for the method and conditions named. Binding calls can cover weak binding; strength is not graded here. Tags and fused reporters may be left off the sequences shown.

With “TAB3ΔNZF (GAL4 AD fusion) (human) (domain or fragment)”, the binding entry is listed as “binds”.
